Measured data: PubChem BioAssay AID504793 (Drosophila RNAi Screening Center, 2011)
The deposit covers about 23,000 reagents; this is an unselected part of those with a known target gene and a result. Over the whole deposit, 62 (0.27%) are marked active. 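Calls come from follow-up tests whose scores are not deposited, so confirmed genes may have low counts here; counts are not normalised per plate.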 Raw values are not corrected between plates.

Aim: 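Whole-genome screen for parts of the DNA damage checkpoint at G2/M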 (primary screen)
System: Drosophila S2R+ cells
Knock-down reagent: long dsRNA against Drosophila genes, about 0.25 µg dsRNA per well
Timing: 4 days of dsRNA, then 4 hours of drug before read-out
Conditions: doxorubicin 0.5 µM for 4 hours to cause double-strand breaks, in cells also given a low, harmless dose of dsRNA against nbs to sensitise the assay
Measurement: 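Per-well count of mitotic cells stained for phospho-histone H3 after doxorubicin exposure, used as mitotic index; counts are raw and not normalised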
Scale: mitotic cells: higher = more cells in mitosis, weaker G2 arrest
Rule for the call: 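Genes are called active only when high mitotic counts were reproduced with independent dsRNAs and mitosis was checked for delay without damage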
Calls: active = confirmed in follow-up tests; inactive = not confirmed

gene knocked down,DRSC id,"mitotic cells, replicate 1",Outcome
CG5644,DRSC10531,6,inactive
CG7945,DRSC10934,8,inactive
Galphaq (G protein alpha subunit q),DRSC07432,5,inactive
Galphaq (G protein alpha subunit q),DRSC25341,17,inactive
"Br140 (Bromodomain-containing protein, 140kD)",DRSC06755,7,inactive
slmb (supernumerary limbs),DRSC17056,3,inactive
TwdlN (TweedleN),DRSC25037,8,inactive
CG32718,DRSC17538,9,inactive
Obp56g (Odorant-binding protein 56g),DRSC06432,9,inactive
CG30110,DRSC05686,6,inactive
mip40 (Myb-interacting protein 40),DRSC06541,5,inactive
CG11837,DRSC14397,5,inactive
CG2260,DRSC18223,8,inactive
CG2260,DRSC28536,4,inactive
CG15695,DRSC15117,12,inactive
CG15695,DRSC29582,11,inactive
Pkc53E (Protein C kinase 53E),DRSC07510,4,inactive
l(3)87Df (lethal (3) 87Df),DRSC16982,4,inactive
Grl65a (Gustatory receptor-like 65a),DRSC08837,2,inactive
Grl65a (Gustatory receptor-like 65a),DRSC25986,4,inactive
Rgk1 (retired record),DRSC07343,3,inactive
Rgk1 (retired record),DRSC25970,10,inactive
Clbn (Caliban),DRSC14404,8,inactive
CG15784,DRSC18090,10,inactive
CG15784,DRSC25383,9,inactive
CG5515,DRSC15825,5,inactive
CG9915,DRSC21565,13,inactive
CG9915,DRSC27327,4,inactive
Pex1 (Peroxin 1),DRSC11358,7,inactive
CG15729 (retired record),DRSC19695,8,inactive
CG15729 (retired record),DRSC29662,8,inactive
CG43999,DRSC14605,7,inactive
Tmtc4 (Transmembrane O-mannosyltransferase targeting cadherins 4),DRSC15702,7,inactive
Ykt6 (YKT6 v-SNARE),DRSC17970,5,inactive
Ykt6 (YKT6 v-SNARE),DRSC26017,5,inactive
CG3356,DRSC04358,10,inactive
CG3356,DRSC28869,8,inactive
aralar1,DRSC13987,4,inactive
aralar1,DRSC16901,4,inactive
aralar1,DRSC29693,7,inactive
Ccp84Ad,DRSC12589,8,inactive
Ccp84Ad,DRSC22854,10,inactive
Fntb (Farnesyl transferase beta subunit),DRSC15244,4,inactive
Fntb (Farnesyl transferase beta subunit),DRSC28158,7,inactive
UQCR-11L (Ubiquinol-cytochrome c reductase 11 kDa subunit-like),DRSC22166,16,inactive
CG32388,DRSC08861,3,inactive
Idgf6 (Imaginal disc growth factor 6),DRSC07360,1,inactive
Idgf6 (Imaginal disc growth factor 6),DRSC24904,8,inactive
CG9386,DRSC16485,3,inactive
VhaPPA1-2 (Vacuolar H[+] ATPase PPA1 subunit 2),DRSC16176,2,inactive
VhaPPA1-2 (Vacuolar H[+] ATPase PPA1 subunit 2),DRSC25591,4,inactive
Alas (Aminolevulinate synthase),DRSC04044,4,inactive
Cdc6 (Cell division cycle 6),DRSC10563,5,inactive
RpS7 (Ribosomal protein S7),DRSC15394,4,inactive
RpS7 (Ribosomal protein S7),DRSC28468,5,inactive
mRpS7 (mitochondrial ribosomal protein S7),DRSC02814,7,inactive
CG12376,DRSC06144,3,inactive
CG12376,DRSC29464,3,inactive
CG31741,DRSC02887,5,inactive
CG3638,DRSC18533,9,inactive
CG3638,DRSC25349,2,inactive
CG8306,DRSC07141,4,inactive
CG8306,DRSC24656,7,inactive
eve (even skipped),DRSC24980,10,inactive
MED22 (Mediator complex subunit 22),DRSC18175,15,inactive
ppan (peter pan),DRSC17030,4,inactive
ppan (peter pan),DRSC28476,4,inactive
Cypl (Cyclophilin-like),DRSC08362,6,inactive
Cypl (Cyclophilin-like),DRSC25421,6,inactive
CG7970,DRSC08605,5,inactive
CG7970,DRSC26090,2,inactive
CstF64 (Cleavage stimulation factor 64 kD subunit),DRSC16616,9,inactive
CstF64 (Cleavage stimulation factor 64 kD subunit),DRSC29486,10,inactive
CG1631,DRSC20535,4,inactive
CG42296,DRSC00394,9,inactive
CG7910,DRSC16341,5,inactive
wa-cup (walker cup),DRSC12511,2,inactive
CG34367,DRSC02238,6,inactive
CG34367,DRSC02850,8,inactive
CG34367,DRSC28054,6,inactive
P32,DRSC06988,8,inactive
Tbp (TATA binding protein),DRSC23111,5,inactive
CG7484,DRSC10853,1,inactive
"POLDIP2 (Polymerase (DNA-directed), delta interacting protein 2)",DRSC12194,3,inactive
Dh44 (Diuretic hormone 44),DRSC12747,1,inactive
Dh44 (Diuretic hormone 44),DRSC16409,4,inactive
RhoGEF2 (Rho guanine nucleotide exchange factor 2),DRSC07531,7,inactive
RhoGEF2 (Rho guanine nucleotide exchange factor 2),DRSC29373,5,inactive
Hmbs (Hydroxymethylbilane synthase),DRSC08632,3,inactive
CG6974,DRSC16160,6,inactive
CkIIbeta2 (Casein kinase II beta2 subunit),DRSC07361,5,inactive
dj (don juan),DRSC12625,6,inactive
dj (don juan),DRSC25525,8,inactive
Su(var)205 (Suppressor of variegation 205),DRSC03446,6,inactive
lncRNA:CR31044 (long non-coding RNA::CR31044),DRSC22451,7,inactive
lncRNA:CR31044 (long non-coding RNA::CR31044),DRSC25989,8,inactive
pyd3,DRSC15459,11,inactive
pyd3,DRSC21640,14,inactive
Rph (Rabphilin),DRSC17790,20,inactive
Rph (Rabphilin),DRSC23887,1,inactive
CG3107,DRSC04888,12,inactive
Eig71Ed (Ecdysone-induced gene 71Ed),DRSC11151,4,inactive
bbg (big bang),DRSC11077,7,inactive
bbg (big bang),DRSC11079,5,inactive
bbg (big bang),DRSC25910,9,inactive
bbg (big bang),DRSC27292,4,inactive
mRpL35 (mitochondrial ribosomal protein L35),DRSC14586,4,inactive
CG3939,DRSC18498,15,inactive
APC4 (Anaphase Promoting Complex subunit 4),DRSC18360,51,inactive
APC4 (Anaphase Promoting Complex subunit 4),DRSC29994,91,inactive

No new results follow: 14 of the entries above.
gene knocked down,DRSC id,"mitotic cells, replicate 1",Outcome
aralar1,DRSC29693,7,inactive
Ccp84Ad,DRSC12589,8,inactive
Ccp84Ad,DRSC22854,10,inactive
Fntb (Farnesyl transferase beta subunit),DRSC15244,4,inactive
Fntb (Farnesyl transferase beta subunit),DRSC28158,7,inactive
UQCR-11L (Ubiquinol-cytochrome c reductase 11 kDa subunit-like),DRSC22166,16,inactive
CG32388,DRSC08861,3,inactive
Idgf6 (Imaginal disc growth factor 6),DRSC07360,1,inactive
Idgf6 (Imaginal disc growth factor 6),DRSC24904,8,inactive
CG9386,DRSC16485,3,inactive
VhaPPA1-2 (Vacuolar H[+] ATPase PPA1 subunit 2),DRSC16176,2,inactive
VhaPPA1-2 (Vacuolar H[+] ATPase PPA1 subunit 2),DRSC25591,4,inactive
Alas (Aminolevulinate synthase),DRSC04044,4,inactive
Cdc6 (Cell division cycle 6),DRSC10563,5,inactive
